One molecule from paper PMC5764400 can be followed below.

In the assay the target is T1, human DISC1 fragment comprising residues 691-836 (C region) (human), Q9NRI5.
T1 chain: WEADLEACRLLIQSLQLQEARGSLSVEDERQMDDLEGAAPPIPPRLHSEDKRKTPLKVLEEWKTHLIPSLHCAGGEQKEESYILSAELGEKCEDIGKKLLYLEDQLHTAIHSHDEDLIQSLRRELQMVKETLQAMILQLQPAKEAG
As to the kind of experiment: SAXS; small angle X-ray scattering at 20°C; DISC1^691-836 at 2.8 mg/mL, VHH B5 at 2.8 and 5.6 mg/mL, complex co-purified by SEC at 2.3 mg/mL; both purified. The conditions noted are these: remark: other sources report otherwise. For orientation: SEC sorts molecules by how far they enter the pores of the column.

No constants are given. Whether binding was seen depends on the method and setting.

B1: human DISC1 fragment comprising residues 691-836 (C region), Q9NRI5 691-836 (domain or fragment)
chain: T1 chain
In the case of B1, the binding entry was “no binding (tested: 2.8 mg/mL)”.
